Source: PubChem BioAssay (NCATS)
Inconclusive results, whose numbers are uncertain, are shown with a selection of clear calls. Potencies beside an inconclusive call are fits to weak or partial responses and may not hold up. Activity calls are given as the source filed them. Calls come from the whole dose curve; as a rule, active = well fitted cell-killing curve with a large enough effect; inconclusive = small, poorly fitted or top-dose-only effect, or effect the other way; inactive = no such curve, though single readings can be large or run the other way.

How the values were obtained:
[1] = Quantitative High-Throughput drug screen in 47 multiple myeloma cell lines against the NCATS MIPE library collection: L363_DSMZ cell viability assay (AID 1918984); details: L363 myeloma viability, CellTiter-Glo ATP luminescence, 48 h; viability (% of control): at 45.8 µM (top of the series); note: nearly all actives have a fitted effect of over 40% in size
Method in brief: (§1)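 ATP-based CellTiter-Glo luminescence after 48 h drug exposure (37 °C, 5% CO2) of 500 myeloma cells per well. DMSO-only wells set 100% viability, media-only wells 0%; MIPE 4.0 library added by pin tool.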

[2] = Quantitative High-Throughput drug screen in 47 multiple myeloma cell lines against the NCATS MIPE library collection: KMS34_JCRB cell viability assay (AID 1918985); details: KMS34 myeloma viability, CellTiter-Glo ATP luminescence, 48 h; viability, percent of control: at 45.8 µM (top of the series); note: nearly all actives have a fitted effect of over 40% in size
Method in brief: as §1

[3] = Quantitative High-Throughput drug screen in 47 multiple myeloma cell lines against the NCATS MIPE library collection: OCIMY7_PLB cell viability assay (AID 1918987); details: OCI-MY7 myeloma viability, CellTiter-Glo ATP, 48 h; viability (% of DMSO): at 45.8 µM (top of the series); note: nearly all actives have a fitted effect of over 65% in size
Method in brief: as §1

[4] = Quantitative High-Throughput drug screen in 47 multiple myeloma cell lines against the NCATS MIPE library collection: OCIMY5_PLB cell viability assay (AID 1918988); details: OCI-MY5 myeloma viability, ATP luminescence, 48 h; viability, % of control: at 45.8 µM (top of the series); note: nearly all actives have a fitted effect of over 65% in size
Method in brief: as §1

[5] = Quantitative High-Throughput drug screen in 47 multiple myeloma cell lines against the NCATS MIPE library collection: OPM1_PLB cell viability assay (AID 1918989); note: nearly all actives have a fitted effect of over 40% in size
Method in brief: as §1

[6] = Quantitative High-Throughput drug screen in 47 multiple myeloma cell lines against the NCATS MIPE library collection: U266_ATCC cell viability assay (AID 1919864); note: nearly all actives have a fitted effect of over 35% in size
Method in brief: as §1

[7] = Quantitative High-Throughput drug screen in 47 multiple myeloma cell lines against the NCATS MIPE library collection: XG6_PLB cell viability assay (AID 1919865); details: XG6 myeloma viability, CellTiter-Glo ATP luminescence, 48 h; viability (% of control): at 45.8 µM (top of the series); note: nearly all actives have a fitted effect of over 40% in size
Method in brief: as §1

[8] = Quantitative High-Throughput drug screen in 47 multiple myeloma cell lines against the NCATS MIPE library collection: XG1_PLB cell viability assay (AID 1919866); note: nearly all actives have a fitted effect of over 35% in size
Method in brief: as §1

[9] = Quantitative High-Throughput drug screen in 47 multiple myeloma cell lines against the NCATS MIPE library collection: VP6_DJ cell viability assay (AID 1919867); details: ATP luminescence, 48 h; viability (% of DMSO): at 45.8 µM (top of the series); note: nearly all actives have a fitted effect of over 40% in size
Method in brief: as §1

[10] = Quantitative High-Throughput drug screen in 47 multiple myeloma cell lines against the NCATS MIPE library collection: SKMM1_PLB cell viability assay (AID 1919863); details: SKMM1 myeloma viability, CellTiter-Glo ATP, 48 h; viability: stronger effect = lower value; note: nearly all actives have a fitted effect of over 35% in size
Method in brief: as §1
Potency is the fitted concentration of half-maximal effect.

COC(c1ccccc1)(c1ccccc1)[C@H](Oc1nc(C)cc(C)n1)C(=O)O
Potency [1]: inconclusive: 0.059 µM [cytotoxic, full curve, poor fit]
Potency [2]: inactive
Potency [3]: inconclusive: 0.0053 µM [rising, full curve, poor fit]
Potency [4]: inconclusive: 2.64 µM [cytotoxic, full curve, poor fit]
Potency [5]: inactive
Potency [6]: inactive
Potency [7]: inactive
Potency [8]: inactive
Potency [9]: inconclusive: 0.0132 µM [cytotoxic, full curve, poor fit]

CCn1cc(C(=O)O)c(=O)c2ccc(C)nc21
Potency [1]: inactive
Potency [2]: inactive
Potency [3]: inconclusive: 33.2 µM [cytotoxic, single point]
Potency [4]: inconclusive: 0.0372 µM [rising, full curve, poor fit]
Potency [5]: inactive
Potency [8]: inactive
Potency [9]: inconclusive: 13.2 µM [cytotoxic, partial curve, poor fit]

NC(=O)c1ncn([C@@H]2O[C@H](CO)[C@@H](O)[C@@H]2O)c1O
Potency [1]: inactive
Potency [2]: inactive
Potency [3]: inconclusive: 0.264 µM [rising, full curve, poor fit]
Potency [4]: inconclusive: 33.2 µM [cytotoxic, partial curve, poor fit]
Potency [5]: inactive
viability [10]: inactive: 102%
Potency [8]: inconclusive: 29.6 µM [cytotoxic, single point]
Potency [9]: inactive

COCCNCCCn1c(C(=O)CF)c(-c2ccc(C)cc2)c2c(N)ncnc21
Potency [1]: inconclusive: 0.59 µM [cytotoxic, full curve, poor fit]
Potency [2]: active: 16.6 µM
Potency [3]: inconclusive: 20.9 µM [cytotoxic, partial curve, poor fit]
Potency [4]: inconclusive: 5.9 µM [cytotoxic, partial curve, poor fit]
Potency [5]: inconclusive: 37.2 µM [cytotoxic, single point]
Potency [6]: inactive
Potency [7]: inconclusive: 37.2 µM [cytotoxic, single point]
Potency [8]: inconclusive: 1.66 µM [cytotoxic, full curve, poor fit]
Potency [9]: inconclusive: 2.96 µM [cytotoxic, full curve, poor fit]

Cc1ccc(C(C)(O)c2nc3ccccc3s2)c(C)c1 (centres undefined)
Potency [1]: inactive
Potency [2]: inactive
Potency [3]: inconclusive: 0.833 µM [cytotoxic, full curve, poor fit]
Potency [4]: inconclusive: 20.9 µM [rising, partial curve, poor fit]
Potency [5]: inconclusive: 23.5 µM [rising, single point]
Potency [6]: inconclusive: 0.662 µM [rising, partial curve, poor fit]
Potency [7]: inactive
Potency [8]: inactive
Potency [9]: inactive

CC[C@H](NC(=O)[C@H](C)NC)C(=O)N1C[C@@H](O)C[C@H]1Cc1c(-c2[nH]c3cc(F)ccc3c2C[C@H]2C[C@H](O)CN2C(=O)[C@H](CC)NC(=O)[C@H](C)NC)[nH]c2cc(F)ccc12
Potency [1]: inconclusive: 1.05 µM [cytotoxic, full curve]
Potency [2]: inconclusive: 10.5 µM [cytotoxic, partial curve, poor fit]
Potency [3]: active: 1.87 µM
Potency [4]: inconclusive: 0.0021 µM [cytotoxic, full curve, poor fit]
Potency [10]: inconclusive: 0.132 µM [cytotoxic, full curve, poor fit]
Potency [6]: inconclusive: 0.0209 µM [rising, full curve, poor fit]

O=C1CCCC(=O)C1C(=O)c1ccc(C(F)(F)F)cc1[N+](=O)[O-]
Potency [1]: inactive
Potency [2]: inconclusive: 2.35 µM [cytotoxic, partial curve, poor fit]
Potency [3]: inactive
Potency [4]: inconclusive: 16.6 µM [cytotoxic, partial curve, poor fit]
Potency [5]: inactive
Potency [10]: inconclusive: 8.33 µM [cytotoxic, full curve, poor fit]
Potency [8]: inactive
Potency [9]: inconclusive: 0.0296 µM [rising, full curve, poor fit]

COc1ccc2c(c1)CC[C@H]1[C@@H]2CC[C@]2(C)[C@@H](NCCCCCCN3C(=O)C=CC3=O)CC[C@H]12
Potency [1]: inconclusive: 0.0023 µM [cytotoxic, full curve, poor fit]
Potency [2]: inactive
Potency [3]: inconclusive: 0.0026 µM [rising, full curve, poor fit]
Potency [4]: inconclusive: 29.6 µM [cytotoxic, partial curve, poor fit]
Potency [5]: inconclusive: 2.96 µM [cytotoxic, full curve, poor fit]
Potency [7]: inactive
Potency [8]: inactive
Potency [9]: inactive
